Assay results reported in patent publication US20190002888A1 (INSTITUT NATIONAL DE LA SANTE ET DE LA RECHERCHE MEDICALE …, published 2019).
Results are given in words; binding and its absence hold for the method and conditions named. Some results given as binding are weak or reduced against the parent protein; the word gives no strength. Where a sequence is shown, tags or fusion partners need not be part of it.

Tests used:
[1] = target: T1, Fc fragment coupled to ECD of human FLT3 (Fc-ECDhFLT3) (human) (UniProt P36888); assay: summary sentence of Example 2
T1 sequence (looked up): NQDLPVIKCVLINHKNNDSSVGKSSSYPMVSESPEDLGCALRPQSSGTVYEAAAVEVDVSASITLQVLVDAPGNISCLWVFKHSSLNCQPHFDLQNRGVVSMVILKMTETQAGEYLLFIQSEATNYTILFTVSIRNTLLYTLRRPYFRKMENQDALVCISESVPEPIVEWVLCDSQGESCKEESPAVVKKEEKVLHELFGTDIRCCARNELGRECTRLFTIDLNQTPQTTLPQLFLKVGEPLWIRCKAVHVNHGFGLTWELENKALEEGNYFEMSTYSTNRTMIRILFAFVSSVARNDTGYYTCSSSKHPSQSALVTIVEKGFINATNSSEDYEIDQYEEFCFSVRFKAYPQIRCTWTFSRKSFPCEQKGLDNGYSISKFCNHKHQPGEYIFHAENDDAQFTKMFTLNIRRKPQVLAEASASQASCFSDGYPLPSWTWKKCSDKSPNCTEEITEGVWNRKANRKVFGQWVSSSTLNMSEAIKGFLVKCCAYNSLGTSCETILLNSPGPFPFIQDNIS

[2] = target: T2, Fc fragment coupled to ECD of mouse FLT3 (Fc-ECDmFLT3) (mouse) (UniProt Q00342); assay: summary sentence of Example 2
T2 sequence (looked up): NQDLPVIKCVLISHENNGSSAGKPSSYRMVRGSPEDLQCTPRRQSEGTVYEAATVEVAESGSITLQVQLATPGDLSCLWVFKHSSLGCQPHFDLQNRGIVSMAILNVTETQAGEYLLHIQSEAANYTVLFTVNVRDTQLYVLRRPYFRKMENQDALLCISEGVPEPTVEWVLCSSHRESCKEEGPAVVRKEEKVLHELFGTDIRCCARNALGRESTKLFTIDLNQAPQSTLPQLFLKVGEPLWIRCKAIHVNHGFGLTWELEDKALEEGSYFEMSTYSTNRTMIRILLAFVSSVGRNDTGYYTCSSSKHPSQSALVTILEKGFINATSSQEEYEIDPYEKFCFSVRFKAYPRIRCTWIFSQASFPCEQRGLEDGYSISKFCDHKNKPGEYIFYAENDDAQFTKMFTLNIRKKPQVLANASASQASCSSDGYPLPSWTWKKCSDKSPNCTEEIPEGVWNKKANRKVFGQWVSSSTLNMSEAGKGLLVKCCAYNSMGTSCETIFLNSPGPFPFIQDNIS

[3] = target: T1, Fc fragment coupled to ECD of human FLT3 (Fc-ECDhFLT3) (human); assay: ELISA, recombinant protein coated, A3 at 10 µg/mL, anti-human antibody-HRP
[4] = target: T2, Fc fragment coupled to ECD of mouse FLT3 (Fc-ECDmFLT3) (mouse); assay: as above

Measured: binding

B1: A3 antibody (human monoclonal antibody against FLT3) (antibody, V domains shown)
VH: EVQLVESGGSLVKPGGSLRLSCAASGFTFSNSYMNWVRQAPGKGLEWISDISGSSRDIDYADFVKGRFTISRDNATNSLYLQMNSLRAEDTAVYYCVRSGNSGMDVWGRGTLVTVSS
VL: QSVLTQPASVSGSPGQSITISCAGTSSDVGGGYYVSWYQQHPGKAPKLMIYYDSYRPSGVSNRFSGSKSGNTASLTISGLQAEDEADYYCSSYTNNSTRVFGGGTKLEIK
notes: also called antibody A3; anti-FLT3 A3 antibody
binds: all assays above
